{"source": "patent US11865110B2", "about": "“Thrombin inhibitors, formulations, and uses thereof” (VERSEON INTERNATIONAL CORPORATION, priority 2018, dated 2024)", "origin": "cited, not measured here", "conditions": "SPORTIF III and V combined; vs warfarin; patients with non-valvular atrial fibrillation; cited from earlier work", "note": "For at least one compound, name, drawing or mass did not settle the structure."}
{"smiles": "CCOC(=O)CN[C@@H](C(=O)N1CC[C@H]1C(=O)NCc1ccc(/C(N)=N\\O)cc1)C1CCCCC1", "note": "[ximelagatran]", "values": [{"measurement": "relative risk reduction in the composite outcome measure of all strokes, systemic embolic events, major bleeding, and death", "value": 16, "unit": "%"}]}
